Experimental data from the supplement of paper PMC12823440, “Inhibitors supercharge kinase turnover through native proteolytic circuits” (Nature, 2025).
Structures can show the parent of a compound that is named as a salt. The list shows a part of the results. The calls rarely recur for the same compound in another form.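 In K562 cells expressing nanoluciferase-fused kinases, luminescence was recorded at 4 h intervals between 2 and 18 h, normalized as percent of control with DMSO at 100% and a positive control at 0%. A significant (2 sigma) signal drop marks a time point as decreased. The authors' rule for a hit is not shown and takes in more than the number of time points.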

Sequences of proteins named here, by UniProt entry; tags and fusion partners are left off. A change or cut given only in a name is not applied to a line headed by its entry.
UniProt Q15208: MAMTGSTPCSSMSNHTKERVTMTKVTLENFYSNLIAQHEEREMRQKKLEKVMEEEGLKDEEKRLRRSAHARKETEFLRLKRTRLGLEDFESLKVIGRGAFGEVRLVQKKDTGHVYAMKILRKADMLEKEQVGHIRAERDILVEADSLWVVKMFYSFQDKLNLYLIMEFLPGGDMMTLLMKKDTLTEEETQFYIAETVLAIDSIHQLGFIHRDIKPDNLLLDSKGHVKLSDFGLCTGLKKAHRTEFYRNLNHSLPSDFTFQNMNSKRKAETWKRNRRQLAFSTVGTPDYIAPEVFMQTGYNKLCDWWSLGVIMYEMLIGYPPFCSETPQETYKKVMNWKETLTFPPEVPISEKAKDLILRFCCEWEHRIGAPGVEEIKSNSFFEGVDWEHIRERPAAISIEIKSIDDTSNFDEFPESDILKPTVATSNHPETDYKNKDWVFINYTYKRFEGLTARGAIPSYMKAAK
UniProt P42680: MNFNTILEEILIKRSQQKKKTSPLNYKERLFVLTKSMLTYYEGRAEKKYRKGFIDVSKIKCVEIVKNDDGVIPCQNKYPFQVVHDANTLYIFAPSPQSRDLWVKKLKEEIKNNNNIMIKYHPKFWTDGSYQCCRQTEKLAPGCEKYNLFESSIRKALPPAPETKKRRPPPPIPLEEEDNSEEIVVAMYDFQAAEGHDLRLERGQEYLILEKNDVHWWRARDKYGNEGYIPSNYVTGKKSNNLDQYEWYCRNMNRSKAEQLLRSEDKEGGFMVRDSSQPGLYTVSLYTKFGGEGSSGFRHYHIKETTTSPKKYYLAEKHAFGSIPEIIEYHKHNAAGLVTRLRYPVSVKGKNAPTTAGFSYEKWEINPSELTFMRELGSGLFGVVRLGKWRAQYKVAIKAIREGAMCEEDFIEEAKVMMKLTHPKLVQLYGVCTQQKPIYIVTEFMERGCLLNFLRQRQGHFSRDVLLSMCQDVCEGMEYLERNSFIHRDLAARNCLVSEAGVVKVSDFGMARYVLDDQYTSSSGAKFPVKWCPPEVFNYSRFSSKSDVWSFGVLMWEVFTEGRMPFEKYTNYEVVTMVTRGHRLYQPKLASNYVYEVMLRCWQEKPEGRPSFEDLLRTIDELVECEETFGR
UniProt P29597: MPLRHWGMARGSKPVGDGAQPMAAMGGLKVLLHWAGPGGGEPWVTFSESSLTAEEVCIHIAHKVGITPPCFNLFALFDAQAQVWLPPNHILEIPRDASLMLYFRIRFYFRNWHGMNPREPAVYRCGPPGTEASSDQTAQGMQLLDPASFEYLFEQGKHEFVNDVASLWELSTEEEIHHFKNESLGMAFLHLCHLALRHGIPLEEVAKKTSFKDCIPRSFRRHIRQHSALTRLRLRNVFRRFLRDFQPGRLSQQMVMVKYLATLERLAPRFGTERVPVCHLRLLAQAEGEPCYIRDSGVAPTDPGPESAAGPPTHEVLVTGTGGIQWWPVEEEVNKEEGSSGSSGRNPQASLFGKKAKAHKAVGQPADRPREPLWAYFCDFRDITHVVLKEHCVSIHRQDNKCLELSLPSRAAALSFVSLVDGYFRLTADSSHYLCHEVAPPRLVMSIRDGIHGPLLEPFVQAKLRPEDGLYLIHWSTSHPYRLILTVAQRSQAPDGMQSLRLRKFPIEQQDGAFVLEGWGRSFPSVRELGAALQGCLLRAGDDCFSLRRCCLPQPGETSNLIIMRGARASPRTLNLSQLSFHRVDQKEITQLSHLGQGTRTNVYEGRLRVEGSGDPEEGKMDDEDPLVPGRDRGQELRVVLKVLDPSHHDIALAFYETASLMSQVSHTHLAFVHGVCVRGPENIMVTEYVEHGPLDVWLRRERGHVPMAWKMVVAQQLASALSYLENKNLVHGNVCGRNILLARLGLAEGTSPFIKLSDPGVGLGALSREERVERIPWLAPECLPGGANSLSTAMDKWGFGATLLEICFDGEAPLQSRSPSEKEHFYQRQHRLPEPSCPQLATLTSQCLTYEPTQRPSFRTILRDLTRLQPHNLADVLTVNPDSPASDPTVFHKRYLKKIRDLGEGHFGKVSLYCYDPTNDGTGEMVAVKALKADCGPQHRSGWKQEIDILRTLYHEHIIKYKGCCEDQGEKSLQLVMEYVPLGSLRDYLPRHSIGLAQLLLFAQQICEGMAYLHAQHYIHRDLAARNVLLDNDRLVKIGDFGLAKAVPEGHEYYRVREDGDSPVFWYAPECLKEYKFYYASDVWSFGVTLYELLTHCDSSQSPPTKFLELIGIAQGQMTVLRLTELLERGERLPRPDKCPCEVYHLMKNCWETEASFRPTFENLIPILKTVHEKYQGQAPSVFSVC
UniProt Q6PHR2: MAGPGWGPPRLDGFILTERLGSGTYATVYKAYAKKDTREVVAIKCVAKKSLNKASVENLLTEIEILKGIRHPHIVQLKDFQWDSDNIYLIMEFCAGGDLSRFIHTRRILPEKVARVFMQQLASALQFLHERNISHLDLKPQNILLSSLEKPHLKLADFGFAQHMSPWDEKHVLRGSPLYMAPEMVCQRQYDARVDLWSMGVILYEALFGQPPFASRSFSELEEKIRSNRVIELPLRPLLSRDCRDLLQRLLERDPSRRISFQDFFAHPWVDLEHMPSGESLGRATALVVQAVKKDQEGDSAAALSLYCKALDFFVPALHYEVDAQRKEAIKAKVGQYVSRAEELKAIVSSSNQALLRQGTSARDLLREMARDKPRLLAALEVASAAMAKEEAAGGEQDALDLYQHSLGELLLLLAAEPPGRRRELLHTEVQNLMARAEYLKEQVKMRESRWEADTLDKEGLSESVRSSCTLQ
UniProt P07947, whole entry, looked up: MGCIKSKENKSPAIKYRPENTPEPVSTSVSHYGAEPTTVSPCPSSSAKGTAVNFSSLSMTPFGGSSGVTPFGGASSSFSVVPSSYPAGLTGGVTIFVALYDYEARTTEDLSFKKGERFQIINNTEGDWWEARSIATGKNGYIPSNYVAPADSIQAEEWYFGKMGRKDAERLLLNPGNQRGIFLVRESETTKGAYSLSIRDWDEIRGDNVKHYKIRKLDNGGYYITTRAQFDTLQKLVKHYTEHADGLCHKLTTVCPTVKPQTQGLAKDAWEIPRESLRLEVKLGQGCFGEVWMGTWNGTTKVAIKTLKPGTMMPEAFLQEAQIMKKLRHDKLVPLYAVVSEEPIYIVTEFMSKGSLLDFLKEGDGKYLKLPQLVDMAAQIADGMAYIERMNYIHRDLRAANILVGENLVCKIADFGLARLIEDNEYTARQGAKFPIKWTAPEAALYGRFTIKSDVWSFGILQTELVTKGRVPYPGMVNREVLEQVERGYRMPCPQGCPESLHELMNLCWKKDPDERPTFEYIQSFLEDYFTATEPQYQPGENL
UniProt P43403: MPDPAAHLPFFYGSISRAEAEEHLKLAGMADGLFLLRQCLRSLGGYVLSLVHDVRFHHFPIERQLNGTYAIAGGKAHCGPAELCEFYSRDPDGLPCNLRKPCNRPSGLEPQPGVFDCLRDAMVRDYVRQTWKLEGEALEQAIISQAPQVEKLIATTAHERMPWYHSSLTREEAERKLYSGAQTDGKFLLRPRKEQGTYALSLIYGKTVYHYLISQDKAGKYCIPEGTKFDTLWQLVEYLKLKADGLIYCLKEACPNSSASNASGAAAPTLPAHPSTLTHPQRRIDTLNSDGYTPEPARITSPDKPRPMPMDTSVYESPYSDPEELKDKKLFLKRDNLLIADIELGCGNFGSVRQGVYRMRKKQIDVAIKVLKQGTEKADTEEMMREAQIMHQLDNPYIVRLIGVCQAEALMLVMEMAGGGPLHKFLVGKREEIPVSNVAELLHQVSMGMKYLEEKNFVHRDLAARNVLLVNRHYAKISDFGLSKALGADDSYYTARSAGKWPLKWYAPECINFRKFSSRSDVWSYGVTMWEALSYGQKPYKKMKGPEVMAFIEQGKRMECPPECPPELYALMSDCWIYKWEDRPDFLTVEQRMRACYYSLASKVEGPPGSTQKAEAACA
UniProt P00519, whole entry: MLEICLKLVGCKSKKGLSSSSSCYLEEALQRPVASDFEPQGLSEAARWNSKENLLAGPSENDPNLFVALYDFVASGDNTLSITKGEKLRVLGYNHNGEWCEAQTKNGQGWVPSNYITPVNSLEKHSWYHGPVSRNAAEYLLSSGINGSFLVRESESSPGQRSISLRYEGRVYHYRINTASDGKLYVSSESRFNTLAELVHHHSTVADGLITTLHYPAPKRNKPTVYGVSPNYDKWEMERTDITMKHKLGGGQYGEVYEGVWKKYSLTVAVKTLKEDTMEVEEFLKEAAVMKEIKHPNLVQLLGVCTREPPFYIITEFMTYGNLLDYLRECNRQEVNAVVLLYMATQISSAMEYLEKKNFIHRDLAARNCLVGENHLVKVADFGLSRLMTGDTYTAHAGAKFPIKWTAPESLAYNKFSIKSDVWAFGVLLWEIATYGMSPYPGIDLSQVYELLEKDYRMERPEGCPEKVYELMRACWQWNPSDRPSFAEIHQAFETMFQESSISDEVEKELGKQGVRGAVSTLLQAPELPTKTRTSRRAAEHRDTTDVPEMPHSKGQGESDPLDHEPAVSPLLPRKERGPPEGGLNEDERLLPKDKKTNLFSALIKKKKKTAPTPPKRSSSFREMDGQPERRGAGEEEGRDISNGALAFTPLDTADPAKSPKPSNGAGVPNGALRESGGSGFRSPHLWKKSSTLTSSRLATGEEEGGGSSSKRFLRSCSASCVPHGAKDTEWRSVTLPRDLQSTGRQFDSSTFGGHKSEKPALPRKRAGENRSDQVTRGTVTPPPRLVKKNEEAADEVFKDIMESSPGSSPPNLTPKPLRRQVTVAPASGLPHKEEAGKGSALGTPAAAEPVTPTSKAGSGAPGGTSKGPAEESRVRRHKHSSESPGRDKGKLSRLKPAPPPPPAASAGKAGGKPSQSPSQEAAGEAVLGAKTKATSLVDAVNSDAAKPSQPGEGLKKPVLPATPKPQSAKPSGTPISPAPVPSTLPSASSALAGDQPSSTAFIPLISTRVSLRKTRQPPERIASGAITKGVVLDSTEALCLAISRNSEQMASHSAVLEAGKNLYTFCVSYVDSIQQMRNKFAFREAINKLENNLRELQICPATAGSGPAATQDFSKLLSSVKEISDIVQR
UniProt P31749: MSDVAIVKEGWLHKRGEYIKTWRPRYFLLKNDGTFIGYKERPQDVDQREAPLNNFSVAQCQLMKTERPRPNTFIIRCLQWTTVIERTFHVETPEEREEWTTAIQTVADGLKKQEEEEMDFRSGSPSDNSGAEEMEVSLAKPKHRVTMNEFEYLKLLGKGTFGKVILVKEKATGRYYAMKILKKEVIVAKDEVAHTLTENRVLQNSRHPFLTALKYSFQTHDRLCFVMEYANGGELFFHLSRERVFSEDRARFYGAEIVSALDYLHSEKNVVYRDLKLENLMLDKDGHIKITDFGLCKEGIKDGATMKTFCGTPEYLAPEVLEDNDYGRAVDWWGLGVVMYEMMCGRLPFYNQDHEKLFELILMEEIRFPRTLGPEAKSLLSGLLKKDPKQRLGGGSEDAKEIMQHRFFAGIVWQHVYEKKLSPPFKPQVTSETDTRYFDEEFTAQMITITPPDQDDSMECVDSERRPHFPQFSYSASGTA

Key:
Settings in all cases: K562; 2-18 h
STK38 = STK38 (UniProt Q15208); assay: kinase-Nluc reporter destabilization hit call (1 = scored as downregulated) (binary); higher = compound decreases kinase abundance
SYK = SYK (UniProt P43405); assay: as above
TEC = TEC (UniProt P42680); assay: as above
TYK2 = TYK2 (UniProt P29597); assay: as above
ULK3 = ULK3 (UniProt Q6PHR2); assay: as above
YES1 = YES1 (UniProt P07947); assay: as above
ZAK = ZAK (UniProt Q9NYL2); assay: as above
ZAP70 = ZAP70 (UniProt P43403); assay: as above
ABL1 = ABL1 (UniProt P00519); assay: number of time points (of 5) at which kinase-Nluc abundance scored as decreased, DMSO-normalised (count); higher = more persistent destabilization
AKT1 = AKT1 (UniProt P31749); assay: as above

Row | SMILES | kinase-Nluc reporter destabilization hit call (STK38) | kinase-Nluc reporter destabilization hit call (SYK) | kinase-Nluc reporter destabilization hit call (TEC) | kinase-Nluc reporter destabilization hit call (TYK2) | kinase-Nluc reporter destabilization hit call (ULK3) | kinase-Nluc reporter destabilization hit call (YES1) | kinase-Nluc reporter destabilization hit call (ZAK) | kinase-Nluc reporter destabilization hit call (ZAP70) | number of time points (ABL1) | number of time points (AKT1)
1 | Oc1ccc(Nc2nc(-c3ccc(Cl)cc3)cs2)cc1 (10 µM) | inactive: 0 | inactive: 0 | inactive: 0 | inactive: 0 | inactive: 0 | inactive: 0 | inactive: 0 | inactive: 0 | 0 | 0
2 | CC(C)(C)c1cc(O)ccc1O (10 µM) | inactive: 0 | inactive: 0 | inactive: 0 | inactive: 0 | inactive: 0 | inactive: 0 | inactive: 0 | inactive: 0 | 0 | 0
3 | N#Cc1c(C2CCNCC2)cc(-c2c(O)cccc2OCC2CC2)nc1N [ACHP (Hydrochloride)] (10 µM) | inactive: 0 | inactive: 0 | inactive: 0 | inactive: 0 | inactive: 0 | inactive: 0 | inactive: 0 | inactive: 0 | 0 | 0
4 | CN1CCN(c2cccc(Nc3nc4c(-c5ccc(S(C)(=O)=O)cc5)cccn4n3)c2)CC1 (10 µM) | inactive: 0 | inactive: 0 | inactive: 0 | inactive: 0 | inactive: 0 | inactive: 0 | inactive: 0 | inactive: 0 | 0 | 0
5 | Oc1cc(O)c2cc(O)c(-c3cc(O)c(O)c(O)c3)[o+]c2c1 [Delphinidin (chloride)] (10 µM) | inactive: 0 | inactive: 0 | inactive: 0 | inactive: 0 | inactive: 0 | inactive: 0 | inactive: 0 | inactive: 0 | 4 | 0
6 | Cc1c(-c2c(F)cc(C(N)=O)c3[nH]c4c(c23)CC[C@H](C(C)(C)O)C4)cccc1-n1c(=O)c2cccc(F)c2n(C)c1=O (2.5 µM) | inactive: 0 | inactive: 0 | inactive: 0 | inactive: 0 | inactive: 0 | inactive: 0 | inactive: 0 | inactive: 0 | 0 | 0
7 | Cc1nc(-c2cn3c(n2)-c2ccc(-c4cnn(C(C)(C)C(N)=O)c4)cc2OCC3)n(C(C)C)n1 [Taselisib] (10 µM) | inactive: 0 | inactive: 0 | inactive: 0 | inactive: 0 | inactive: 0 | inactive: 0 | inactive: 0 | inactive: 0 | 0 | 0
8 | C=CC(=O)Nc1cccc(Nc2nc(Nc3ccc(NC4CN(CCF)C4)cc3OC)ncc2C(F)(F)F)c1 (2.5 µM) | inactive: 0 | inactive: 0 | inactive: 0 | inactive: 0 | inactive: 0 | inactive: 0 | inactive: 0 | inactive: 0 | 0 | 0
9 | Cn1nccc1Nc1nccc(-c2ccn([C@H](CO)c3ccc(Cl)c(F)c3)c(=O)c2)n1 [Ravoxertinib hydrochloride] (10 µM) | inactive: 0 | inactive: 0 | inactive: 0 | inactive: 0 | inactive: 0 | inactive: 0 | inactive: 0 | inactive: 0 | 0 | 0
10 | c1ccc(-c2[nH]ncc2-c2ccnc3ccccc23)nc1 (10 µM) | inactive: 0 | inactive: 0 | inactive: 0 | inactive: 0 | inactive: 0 | inactive: 0 | inactive: 0 | inactive: 0 | 0 | 0
11 | CN(C)CCSSCCNC(=O)C1CCN(C(=O)CSc2ccc(Cl)cc2)CC1 (10 µM) | inactive: 0 | inactive: 0 | inactive: 0 | inactive: 0 | inactive: 0 | inactive: 0 | inactive: 0 | inactive: 0 | 0 | 0
12 | NS(=O)(=O)c1ccc(-n2nc(C(F)(F)F)cc2-c2ccc(Cl)cc2)cc1 (10 µM) | inactive: 0 | inactive: 0 | inactive: 0 | inactive: 0 | inactive: 0 | inactive: 0 | inactive: 0 | inactive: 0 | 0 | 0
13 | Cc1[nH]c(/C=C2\C(=O)Nc3ccccc32)c(C)c1CCC(=O)O [Orantinib] (10 µM) | inactive: 0 | inactive: 0 | inactive: 0 | inactive: 0 | inactive: 0 | inactive: 0 | inactive: 0 | inactive: 0 | 0 | 0
14 | Oc1cc2c(cc1O)C(Cc1cccc3ccccc13)NCC2 (stereo not given) (10 µM) | inactive: 0 | inactive: 0 | inactive: 0 | inactive: 0 | inactive: 0 | inactive: 0 | inactive: 0 | inactive: 0 | 0 | 0
15 | COc1ccccc1-c1cc(Nc2cccc(CS(N)(=O)=O)c2)ncn1 (10 µM) | inactive: 0 | inactive: 0 | inactive: 0 | inactive: 0 | inactive: 0 | inactive: 0 | inactive: 0 | inactive: 0 | 0 | 0
16 | COc1ccc(-c2ccc3c(N4CCOCC4)nc(N4C[C@@H](C)O[C@@H](C)C4)nc3n2)cc1CO (2.5 µM) | inactive: 0 | inactive: 0 | inactive: 0 | inactive: 0 | inactive: 0 | inactive: 0 | inactive: 0 | inactive: 0 | 0 | 0

Row | SMILES | kinase-Nluc reporter destabilization hit call (STK38) | kinase-Nluc reporter destabilization hit call (SYK) | kinase-Nluc reporter destabilization hit call (TEC) | kinase-Nluc reporter destabilization hit call (TYK2) | kinase-Nluc reporter destabilization hit call (ULK3) | kinase-Nluc reporter destabilization hit call (YES1) | kinase-Nluc reporter destabilization hit call (ZAK) | kinase-Nluc reporter destabilization hit call (ZAP70) | number of time points (ABL1) | number of time points (AKT1)
17 | N#CCC1CCN(c2nc(Nc3ccc(N4CCC(O)CC4)cc3)c3c(=O)[nH]ncc3n2)CC1 [Gusacitinib] (10 µM) | inactive: 0 | inactive: 0 | inactive: 0 | inactive: 0 | inactive: 0 | inactive: 0 | inactive: 0 | inactive: 0 | 4 | 0
18 | Cc1[nH]c(/C=C2\C(=O)Nc3ccccc32)c(C)c1CCC(=O)O [(Z)-Orantinib] (10 µM) | inactive: 0 | inactive: 0 | inactive: 0 | inactive: 0 | inactive: 0 | inactive: 0 | inactive: 0 | inactive: 0 | 0 | 0
19 | CCS(=O)(=O)Nc1ccc2[nH]c(O)c(C(=Nc3ccc(CN4CCCCC4)cc3)c3ccccc3)c2c1 [Hesperadin] (2.5 µM) | inactive: 0 | inactive: 0 | inactive: 0 | inactive: 0 | inactive: 0 | inactive: 0 | inactive: 0 | inactive: 0 | 4 | 0
20 | O=C([O-])c1cc2ccccc2c(Cc2c(O)c(C(=O)[O-])cc3ccccc23)c1O.[Na+].[Na+] [Pamoic acid (disodium)] (10 µM) | inactive: 0 | inactive: 0 | inactive: 0 | inactive: 0 | inactive: 0 | inactive: 0 | inactive: 0 | inactive: 0 | 0 | 0
21 | COc1ccc2c(OCc3nnc4ccc(-c5ccccc5)nn34)ccnc2c1 (2 µM) | inactive: 0 | inactive: 0 | inactive: 0 | inactive: 0 | inactive: 0 | inactive: 0 | inactive: 0 | inactive: 0 | 0 | 0
22 | C=CC(=O)Nc1cc(C)ccc1Nc1nc(Nc2cc(OC)ncc2C)ncc1C(F)(F)F (10 µM) | inactive: 0 | inactive: 0 | inactive: 0 | inactive: 0 | inactive: 0 | inactive: 0 | inactive: 0 | inactive: 0 | 0 | 0
23 | Nc1cc(C(F)(F)F)c(-c2cc(N3CCOCC3)nc(N3CCOCC3)n2)cn1 [Buparlisib (Hydrochloride)] (2.5 µM) | inactive: 0 | inactive: 0 | inactive: 0 | inactive: 0 | inactive: 0 | inactive: 0 | inactive: 0 | inactive: 0 | 2 | 0
24 | Cn1cc(-c2ccc3c(c2)CCN3C(=O)Cc2cccc(C(F)(F)F)c2)c2c(N)ncnc21 (2.5 µM) | inactive: 0 | inactive: 0 | inactive: 0 | inactive: 0 | inactive: 0 | inactive: 0 | inactive: 0 | inactive: 0 | 0 | 0
25 | Nc1ncnc2c1c(-c1ccc(Oc3ccccc3)cc1)nn2C1CCCC1 (2.5 µM) | inactive: 0 | inactive: 0 | inactive: 0 | inactive: 0 | inactive: 0 | inactive: 0 | inactive: 0 | inactive: 0 | 0 | 0
26 | COc1cc(OC2CCN(C)CC2)ccc1Nc1ncc2c(n1)n(C1CCCC1)c(=O)n2C (10 µM) | inactive: 0 | inactive: 0 | inactive: 0 | inactive: 0 | inactive: 0 | inactive: 0 | inactive: 0 | inactive: 0 | 0 | 0
27 | O=C(O)CCC(=O)Nc1ccc(Br)cn1 [Bikinin] (10 µM) | inactive: 0 | inactive: 0 | inactive: 0 | inactive: 0 | inactive: 0 | inactive: 0 | inactive: 0 | inactive: 0 | 0 | 0
28 | O=C1NC(=O)/C(=C/c2ccc3nccnc3c2)S1 (10 µM) | inactive: 0 | inactive: 0 | inactive: 0 | inactive: 0 | inactive: 0 | inactive: 0 | inactive: 0 | inactive: 0 | 0 | 0
29 | CN(CC(=O)N(Cc1ccc(C2CCCCC2)cc1)c1ccc(C(=O)NO)cc1)S(=O)(=O)c1c(F)c(F)c(F)c(F)c1F (2.5 µM) | inactive: 0 | inactive: 0 | inactive: 0 | inactive: 0 | inactive: 0 | inactive: 0 | inactive: 0 | inactive: 0 | 0 | 0
30 | O=C(NOCC(O)CO)c1cc(Br)c(F)c(F)c1Nc1ccc(I)cc1F (stereo not given) (2.5 µM) | inactive: 0 | inactive: 0 | inactive: 0 | inactive: 0 | inactive: 0 | inactive: 0 | inactive: 0 | inactive: 0 | 0 | 0
31 | CS(=O)(=O)Nc1cc(-c2ccc3ncnc(Nc4ccc(F)c(Cl)c4)c3c2)cnc1Cl (2.5 µM) | inactive: 0 | inactive: 0 | inactive: 0 | inactive: 0 | inactive: 0 | inactive: 0 | inactive: 0 | inactive: 0 | 2 | 0

Excerpt: entries 20–21
Row | SMILES | kinase-Nluc reporter destabilization hit call (STK38) | kinase-Nluc reporter destabilization hit call (SYK) | kinase-Nluc reporter destabilization hit call (TEC) | kinase-Nluc reporter destabilization hit call (TYK2) | kinase-Nluc reporter destabilization hit call (ULK3) | kinase-Nluc reporter destabilization hit call (YES1) | kinase-Nluc reporter destabilization hit call (ZAK) | kinase-Nluc reporter destabilization hit call (ZAP70) | number of time points (ABL1) | number of time points (AKT1)
20 | O=C([O-])c1cc2ccccc2c(Cc2c(O)c(C(=O)[O-])cc3ccccc23)c1O.[Na+].[Na+] [Pamoic acid (disodium)] (10 µM) | inactive: 0 | inactive: 0 | inactive: 0 | inactive: 0 | inactive: 0 | inactive: 0 | inactive: 0 | inactive: 0 | 0 | 0
21 | COc1ccc2c(OCc3nnc4ccc(-c5ccccc5)nn34)ccnc2c1 (2 µM) | inactive: 0 | inactive: 0 | inactive: 0 | inactive: 0 | inactive: 0 | inactive: 0 | inactive: 0 | inactive: 0 | 0 | 0
